± gives the standard deviation of the averaged measurements. Differences between knockout arms are mostly noise.
Test system: BT-20
Assay: relative cell number vs DMSO control (72 h) (% of DMSO); higher = less growth inhibition (more cells)
Protocol: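 QMAP-Seq: a pool of 5 breast cancer cell lines (ZR-75-1, SKBR3, HCC-38, MDA-MB-231, BT-20), each carrying 12 doxycycline-inducible Cas9 sgRNA perturbations (11 knockouts plus non-targeting sgNT), was treated with compounds for 72 h at four 10-fold doses (10 nM-10 uM or 1 nM-1 uM range). Barcodes were amplified and sequenced, and cell number was interpolated from 293T spike-in standard curves. The result is expressed as % of the median of DMSO wells. Two biological replicates.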

CC(C)CC(=O)Nc1n[nH]c2c1CN(C(=O)C1CCN(C)CC1)C2(C)C
Conditions	relative cell number
sgRNA knockout: sgATF3, 10 nM	97.7 ± 20
sgRNA knockout: sgATF3, 100 nM	72.3 ± 12
sgRNA knockout: sgATF3, 1000 nM	38.2 ± 1.4
sgRNA knockout: sgATF3, 10000 nM	28.3 ± 5.5
sgRNA knockout: sgATF4, 10 nM	114 ± 9.4
sgRNA knockout: sgATF4, 100 nM	72.4 ± 4.3
sgRNA knockout: sgATF4, 1000 nM	39.4 ± 5.4
sgRNA knockout: sgATF4, 10000 nM	27.3 ± 2.3
sgRNA knockout: sgATF6, 10 nM	105 ± 7.6
sgRNA knockout: sgATF6, 100 nM	69.1 ± 0.87
sgRNA knockout: sgATF6, 1000 nM	39 ± 7.3
sgRNA knockout: sgATF6, 10000 nM	30.8 ± 2.7
sgRNA knockout: sgATG7, 10 nM	110 ± 26
sgRNA knockout: sgATG7, 100 nM	80.5 ± 23
sgRNA knockout: sgATG7, 1000 nM	38.6 ± 9.7
sgRNA knockout: sgATG7, 10000 nM	27.4 ± 2
sgRNA knockout: sgERN1, 10 nM	92.5 ± 28
sgRNA knockout: sgERN1, 100 nM	80.4 ± 7
sgRNA knockout: sgERN1, 1000 nM	39.1 ± 5.7
sgRNA knockout: sgERN1, 10000 nM	28.1 ± 3.8
sgRNA knockout: sgHSF1, 10 nM	105 ± 13
sgRNA knockout: sgHSF1, 100 nM	72.6 ± 8.8
sgRNA knockout: sgHSF1, 1000 nM	40.5 ± 4.9
sgRNA knockout: sgHSF1, 10000 nM	29 ± 5.2
sgRNA knockout: sgHSF2, 10 nM	113 ± 17
sgRNA knockout: sgHSF2, 100 nM	75.3 ± 14
sgRNA knockout: sgHSF2, 1000 nM	45 ± 1.6
sgRNA knockout: sgHSF2, 10000 nM	26.8 ± 7.4
sgRNA knockout: sgKEAP1, 10 nM	91.4 ± 6.2
sgRNA knockout: sgKEAP1, 100 nM	77.9 ± 5.3
sgRNA knockout: sgKEAP1, 1000 nM	34.3 ± 12
sgRNA knockout: sgKEAP1, 10000 nM	27.2 ± 1.8
sgRNA knockout: sgNFE2L2, 10 nM	112 ± 44
sgRNA knockout: sgNFE2L2, 100 nM	64.7 ± 3.4
sgRNA knockout: sgNFE2L2, 1000 nM	40.2 ± 2.6
sgRNA knockout: sgNFE2L2, 10000 nM	30.3 ± 1.6
sgRNA knockout: sgSLC35F2, 10 nM	98.8 ± 29
sgRNA knockout: sgSLC35F2, 100 nM	65.3 ± 7.1
sgRNA knockout: sgSLC35F2, 1000 nM	47.2 ± 3.5
sgRNA knockout: sgSLC35F2, 10000 nM	26.1 ± 6.5
sgRNA knockout: sgXBP1, 10 nM	108 ± 27
sgRNA knockout: sgXBP1, 100 nM	73 ± 8.4
sgRNA knockout: sgXBP1, 1000 nM	43 ± 3.1
sgRNA knockout: sgXBP1, 10000 nM	26.1 ± 6.7

Cc1c(Cn2c(C)nc3c(C(=O)O)cc(N4CCOCC4)cc32)cccc1C(F)(F)F
Conditions	relative cell number
sgRNA knockout: sgATF3, 10 nM	80.4 ± 1.4
sgRNA knockout: sgATF3, 100 nM	113 ± 14
sgRNA knockout: sgATF3, 1000 nM	100 ± 14
sgRNA knockout: sgATF3, 10000 nM	111 ± 7.2
sgRNA knockout: sgATF4, 10 nM	97.2 ± 1.1
sgRNA knockout: sgATF4, 100 nM	112 ± 6.2
sgRNA knockout: sgATF4, 1000 nM	98.7 ± 5.7
sgRNA knockout: sgATF4, 10000 nM	105 ± 7.9
sgRNA knockout: sgATF6, 10 nM	101 ± 7
sgRNA knockout: sgATF6, 100 nM	104 ± 11
sgRNA knockout: sgATF6, 1000 nM	82.5 ± 4.6
sgRNA knockout: sgATF6, 10000 nM	97.2 ± 9.2
sgRNA knockout: sgATG7, 10 nM	110 ± 14
sgRNA knockout: sgATG7, 100 nM	102 ± 12
sgRNA knockout: sgATG7, 1000 nM	98.32 ± 0.17
sgRNA knockout: sgATG7, 10000 nM	100 ± 13
sgRNA knockout: sgERN1, 10 nM	89.95 ± 0.58
sgRNA knockout: sgERN1, 100 nM	97.8 ± 8.2
sgRNA knockout: sgERN1, 1000 nM	83 ± 14
sgRNA knockout: sgERN1, 10000 nM	103 ± 0.21
sgRNA knockout: sgHSF1, 10 nM	102 ± 9.6
sgRNA knockout: sgHSF1, 100 nM	102 ± 6.4
sgRNA knockout: sgHSF1, 1000 nM	94.8 ± 9.5
sgRNA knockout: sgHSF1, 10000 nM	105 ± 8.5
sgRNA knockout: sgHSF2, 10 nM	114 ± 15
sgRNA knockout: sgHSF2, 100 nM	116 ± 4.3
sgRNA knockout: sgHSF2, 1000 nM	99.2 ± 23
sgRNA knockout: sgHSF2, 10000 nM	83.2 ± 0.94
sgRNA knockout: sgKEAP1, 10 nM	109 ± 7.3
sgRNA knockout: sgKEAP1, 100 nM	100 ± 4.6
sgRNA knockout: sgKEAP1, 1000 nM	94 ± 18
sgRNA knockout: sgKEAP1, 10000 nM	102 ± 9.8
sgRNA knockout: sgNFE2L2, 10 nM	125 ± 18
sgRNA knockout: sgNFE2L2, 100 nM	146 ± 8.3
sgRNA knockout: sgNFE2L2, 1000 nM	97.6 ± 14
sgRNA knockout: sgNFE2L2, 10000 nM	124.6 ± 1.2
sgRNA knockout: sgSLC35F2, 10 nM	105 ± 8.6
sgRNA knockout: sgSLC35F2, 100 nM	116 ± 4.2
sgRNA knockout: sgSLC35F2, 1000 nM	98.2 ± 11
sgRNA knockout: sgSLC35F2, 10000 nM	107 ± 17
sgRNA knockout: sgXBP1, 10 nM	109 ± 4
sgRNA knockout: sgXBP1, 100 nM	109 ± 12
sgRNA knockout: sgXBP1, 1000 nM	97.7 ± 1.7
sgRNA knockout: sgXBP1, 10000 nM	96.2 ± 4.3

Cc1cc(N2CCOCC2)cc2[nH]c(-c3c(NC[C@@H](O)c4cccc(Cl)c4)cc[nH]c3=O)nc12
Conditions	relative cell number
sgRNA knockout: sgATF3, 10 nM	102 ± 15
sgRNA knockout: sgATF3, 100 nM	94.5 ± 6.3
sgRNA knockout: sgATF3, 1000 nM	99.6 ± 5.5
sgRNA knockout: sgATF3, 10000 nM	74.3 ± 11
sgRNA knockout: sgATF4, 10 nM	95.43 ± 0.48
sgRNA knockout: sgATF4, 100 nM	84.1 ± 12
sgRNA knockout: sgATF4, 1000 nM	103 ± 8.1
sgRNA knockout: sgATF4, 10000 nM	71.7 ± 6.4
sgRNA knockout: sgATF6, 10 nM	91.6 ± 26
sgRNA knockout: sgATF6, 100 nM	105 ± 4.4
sgRNA knockout: sgATF6, 1000 nM	96.9 ± 2.3
sgRNA knockout: sgATF6, 10000 nM	63.8 ± 20
sgRNA knockout: sgATG7, 10 nM	89.96 ± 0.14
sgRNA knockout: sgATG7, 100 nM	97 ± 14
sgRNA knockout: sgATG7, 1000 nM	94 ± 7.7
sgRNA knockout: sgATG7, 10000 nM	84.5 ± 1.1
sgRNA knockout: sgERN1, 10 nM	88.1 ± 17
sgRNA knockout: sgERN1, 100 nM	86.9 ± 13
sgRNA knockout: sgERN1, 1000 nM	112 ± 2.5
sgRNA knockout: sgERN1, 10000 nM	67.7 ± 5.3
sgRNA knockout: sgHSF1, 10 nM	92.8 ± 12
sgRNA knockout: sgHSF1, 100 nM	78.2 ± 1
sgRNA knockout: sgHSF1, 1000 nM	104 ± 20
sgRNA knockout: sgHSF1, 10000 nM	62.1 ± 16
sgRNA knockout: sgHSF2, 10 nM	95.9 ± 17
sgRNA knockout: sgHSF2, 100 nM	78.95 ± 0.52
sgRNA knockout: sgHSF2, 1000 nM	112 ± 4.9
sgRNA knockout: sgHSF2, 10000 nM	67.1 ± 13
sgRNA knockout: sgKEAP1, 10 nM	104 ± 12
sgRNA knockout: sgKEAP1, 100 nM	74.1 ± 1.8
sgRNA knockout: sgKEAP1, 1000 nM	97.7 ± 8.2
sgRNA knockout: sgKEAP1, 10000 nM	65.4 ± 3.8
sgRNA knockout: sgNFE2L2, 10 nM	92.1 ± 31
sgRNA knockout: sgNFE2L2, 100 nM	87.4 ± 9.1
sgRNA knockout: sgNFE2L2, 1000 nM	111 ± 16
sgRNA knockout: sgNFE2L2, 10000 nM	66.8 ± 4.4
sgRNA knockout: sgSLC35F2, 10 nM	101.6 ± 0.77
sgRNA knockout: sgSLC35F2, 100 nM	87.6 ± 6.3
sgRNA knockout: sgSLC35F2, 1000 nM	103 ± 4.1
sgRNA knockout: sgSLC35F2, 10000 nM	66.8 ± 12
sgRNA knockout: sgXBP1, 10 nM	103 ± 17
sgRNA knockout: sgXBP1, 100 nM	87.3 ± 11
sgRNA knockout: sgXBP1, 1000 nM	110.6 ± 0.35
sgRNA knockout: sgXBP1, 10000 nM	69.1 ± 1.7

Reference: the supplement of paper PMC7661543
